# This is one part of the list. Values are raw readings; no control value is given beside them.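 In the initial screen, polymyxin B was used at a concentration that permeabilizes Salmonella's outer membrane but not its inner membrane. Maximum growth was set by DMSO wells with or without polymyxin B. Since plates varied, data were ranked per plate, and compounds giving the lowest OD600 advanced as hits.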
# Tested on: Salmonella enterica serovar Typhimurium SL1344
# Assay: bacterial growth OD600 after 18 h with compound and polymyxin B; higher = more bacterial growth (less inhibition)
# Conditions: 50 µM, Mueller-Hinton broth
Compound,bacterial growth OD600 (polymyxin B 0.75 µg/mL),bacterial growth OD600 (polymyxin B 1 µg/mL)
O=C(Cn1cccn1)N1CCCC(CCc2ccccc2)C1 (configuration not stated),0.973,–
CCc1ocnc1C(=O)NC1CCCN(C2CCCCCC2)C1 (configuration not stated),–,1.12
CCOC(=O)C1(CCOc2ccccc2)CCCN(C(=O)c2cccnc2SC)C1 (configuration not stated),–,0.869
CCOCCNC(=O)C1CCC(=O)N(CCc2ccc(Cl)cc2)C1 (configuration not stated),–,0.906
COc1cccc2c1OCC(NCc1ccccc1)C2 (configuration not stated),0.907,–
O=C(NCCN1CCCC1)c1cc(Cl)ccc1OC1CCN(C2CCCC2)CC1,–,0.733
CCCN(CC1CC1)C(=O)c1cn(CC(C)C)cc(C(=O)NCC)c1=O,0.794,–
C=CCCC(=O)N1CCC(C2CCN(CCc3ccccc3)CC2)C1 (configuration not stated),–,0.925
O=C(NCCc1ccccc1C(F)(F)F)c1cc(CN2CCCC(O)C2)on1 (configuration not stated),0.785,–
COCc1ccc(C(=O)Nc2ccc(-c3nc(CNC(=O)c4ccc(F)cc4F)c(C)o3)cc2)o1,0.799,–
Cc1cnc(C(=O)NC2CCCc3nc(-c4ccccc4)ncc32)cn1 (configuration not stated),–,0.931
CCc1cc(C(=O)NC2CC(=O)N(CC3CCCCC3)C2)n(C)n1 (configuration not stated),–,0.871
CN(CCN1CCCCC1)C(=O)CCc1nnc(-c2ccc3c(c2)OCO3)o1,0.76,–
CC(C)Cc1ccc(CN2CCCC(NC(=O)C3CCN(Cc4ccco4)CC3)C2)cc1 (configuration not stated),–,0.906
CCc1ccc(CN2CCc3c(C(=O)N4CCc5ccccc5C4)c(OC)cc(=O)n3CC2)cc1,0.732,–
O=C(NCC1CCCN(C(=O)c2cncs2)C1)c1ccc(-c2ccccc2)cc1 (configuration not stated),–,0.921

Compound,bacterial growth OD600 (polymyxin B 0.75 µg/mL),bacterial growth OD600 (polymyxin B 1 µg/mL)
CC(=O)Nc1cnn(-c2ccc(C(=O)N3CCCC(c4ccccc4)C3)cc2)c1 (configuration not stated),0.915,–
O=C(CC(c1cccc(O)c1)c1ccccc1O)NC1CCCCC1 (configuration not stated),–,0.502
OCC1CCN(c2ncc3c(n2)CCCC3NCc2ccc3c(c2)CCO3)CC1 (configuration not stated),0.837,–
COc1ccc(/C=C/C(=O)N(C)C2CCCN(C3Cc4ccccc4C3)C2)cc1OC (configuration not stated),–,0.88
CCC(=O)NC1CCCc2nc(-c3cccnc3)ncc21 (configuration not stated),–,1.1
CN(Cc1ccccn1)C(=O)c1cc(COc2ccc(F)c(F)c2)on1,–,0.652
Cc1ccc2c(C)nc(N3CCC(C(=O)NC4CCOC(C)(C)C4)CC3)nc2c1 (configuration not stated),0.809,–
CN(CCc1ccccc1)C(=O)c1nc2sccn2c1CNC1CCC1,–,0.855
Cc1nc(CN(C)C(=O)C2CCC(=O)N(CCCc3ccccc3)C2)cs1 (configuration not stated),–,0.884
O=C(CC1(c2ccccc2)CC(=O)N(Cc2cccs2)C1=O)N1CCN(c2ccccc2)CC1 (configuration not stated),0.737,–
Cc1ccc2oc(C(=O)N(C)Cc3cccc4cccnc34)c(C)c2c1,0.069,–
COc1ccc(-c2n[nH]cc2CN2C[C@H]3OC(=O)N(C4CCCC4)[C@H]3C2)cc1,0.803,–
COCC1CCCN(C(=O)c2cc(Cn3nc(C)cc3C)[nH]n2)C1 (configuration not stated),0.772,–
CCCCN(C)C(=O)CCc1nnc(CCc2ccccc2OC)o1,–,0.894
CCN1CCN(C2(C(=O)NCCn3cccn3)Cc3ccccc3C2)CC1,0.999,–
CCOC(=O)C1(CCc2ccccc2)CCN(C(=O)c2occc2C)CC1,–,0.007

# Reference: the supplement of paper PMC12889115
